Values from PubChem BioAssay AID1259308 (NCATS, 2017)

Assay: 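Knock-downs that increase output of a recombinant reporter protein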 (primary screen)
System: human HEK293 embryonic kidney cells stably expressing firefly luciferase (HEK-CMV-Luc2-Hygro)
Reagents: single siRNA against human genes, 0.8 pmol siRNA per well
Time to read-out: 72 h
Measured: 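Reporter luminescence and viable-cell signal on separate replicate plates, given as percent of non-targeting control and median/MAD z-scores, plus per-cell luciferase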
Reading the numbers: total luciferase, z-score and total luciferase, % of control: higher = more reporter protein produced; luciferase per cell, z-score: higher = more reporter output per viable cell; viable cells, % of control: higher = more viable cells
Rule for the call: 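Active when the median/MAD z-score for overall luciferase is greater than 3; a gene was taken forward for validation with new siRNAs if at least two of its three siRNAs passed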
Calls: active = raised luciferase; inactive = no rise
The deposit covers about 59,000 reagents; shown is an unselected part. About 1,510 of them (2.6%) were called active. 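Calls use total luciferase alone and ignore viability, so some active siRNAs may act by altering cell number.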 A number with no mark means an inactive call. The numbers tell different reagents against one gene apart.

target gene,siRNA no.,"total luciferase, z-score","total luciferase, % of control","luciferase per cell, z-score","viable cells, % of control"
SPRN (shadow of prion protein),1,-0.0805,80.3,-0.708,108
SPRN (shadow of prion protein),2,1.13,104,0.964,90.5
SPRN (shadow of prion protein),3,-1.24,57.3,0.621,54.4
MAFK (MAF bZIP transcription factor K),1,-0.371,74.5,-0.517,95.4
MAFK (MAF bZIP transcription factor K),2,-0.128,79.3,-0.136,91.9
MAFK (MAF bZIP transcription factor K),3,2.22,126,1.2,103
HHIP (hedgehog interacting protein),1,0.545,92.7,1.31,73.4
HHIP (hedgehog interacting protein),2,0.514,92.1,0.297,95.2
HHIP (hedgehog interacting protein),3,-0.506,71.8,0.577,68.9
"LIPF (lipase F, gastric type)",1,0.636,94.5,0.488,92.9
"LIPF (lipase F, gastric type)",2,1.56,113,0.469,112
"LIPF (lipase F, gastric type)",3,0.977,101,0.518,98.8
BOLL (boule RNA binding protein),1,-0.135,79.2,-0.707,107
BOLL (boule RNA binding protein),2,-1.16,58.8,-0.164,68.6
BOLL (boule RNA binding protein),3,0.778,97.4,0.452,96.6
RHOBTB1 (Rho related BTB domain containing 1),1,-1.11,59.8,-1.06,88.3
RHOBTB1 (Rho related BTB domain containing 1),2,-1.07,60.7,0.11,65.9
RHOBTB1 (Rho related BTB domain containing 1),3,-2.51,31.9,-2.7,72.6
PRRT1B (proline rich transmembrane protein 1B),1,-0.705,67.9,0.2,72
PRRT1B (proline rich transmembrane protein 1B),2,-0.123,79.4,-0.151,92.4
PRRT1B (proline rich transmembrane protein 1B),3,0.927,100,0.904,88.4
CDADC1 (cytidine and dCMP deaminase domain containing 1),1,-0.107,79.8,-0.196,93.9
CDADC1 (cytidine and dCMP deaminase domain containing 1),2,2.89,139,1.13,116
CDADC1 (cytidine and dCMP deaminase domain containing 1),3,0.173,85.3,-0.534,110

2 successive entries already listed, quoted:
target gene,siRNA no.,"total luciferase, z-score","total luciferase, % of control","luciferase per cell, z-score","viable cells, % of control"
"LIPF (lipase F, gastric type)",3,0.977,101,0.518,98.8
BOLL (boule RNA binding protein),1,-0.135,79.2,-0.707,107
